According to paper PMC8260596:
Results are given in words; binding and its absence hold for the method and conditions named. Some results given as binding are weak or reduced against the parent protein; the word gives no strength.

Protein sequences, listed by entry. Tags and fused reporters are not part of them.
UniProt P46821: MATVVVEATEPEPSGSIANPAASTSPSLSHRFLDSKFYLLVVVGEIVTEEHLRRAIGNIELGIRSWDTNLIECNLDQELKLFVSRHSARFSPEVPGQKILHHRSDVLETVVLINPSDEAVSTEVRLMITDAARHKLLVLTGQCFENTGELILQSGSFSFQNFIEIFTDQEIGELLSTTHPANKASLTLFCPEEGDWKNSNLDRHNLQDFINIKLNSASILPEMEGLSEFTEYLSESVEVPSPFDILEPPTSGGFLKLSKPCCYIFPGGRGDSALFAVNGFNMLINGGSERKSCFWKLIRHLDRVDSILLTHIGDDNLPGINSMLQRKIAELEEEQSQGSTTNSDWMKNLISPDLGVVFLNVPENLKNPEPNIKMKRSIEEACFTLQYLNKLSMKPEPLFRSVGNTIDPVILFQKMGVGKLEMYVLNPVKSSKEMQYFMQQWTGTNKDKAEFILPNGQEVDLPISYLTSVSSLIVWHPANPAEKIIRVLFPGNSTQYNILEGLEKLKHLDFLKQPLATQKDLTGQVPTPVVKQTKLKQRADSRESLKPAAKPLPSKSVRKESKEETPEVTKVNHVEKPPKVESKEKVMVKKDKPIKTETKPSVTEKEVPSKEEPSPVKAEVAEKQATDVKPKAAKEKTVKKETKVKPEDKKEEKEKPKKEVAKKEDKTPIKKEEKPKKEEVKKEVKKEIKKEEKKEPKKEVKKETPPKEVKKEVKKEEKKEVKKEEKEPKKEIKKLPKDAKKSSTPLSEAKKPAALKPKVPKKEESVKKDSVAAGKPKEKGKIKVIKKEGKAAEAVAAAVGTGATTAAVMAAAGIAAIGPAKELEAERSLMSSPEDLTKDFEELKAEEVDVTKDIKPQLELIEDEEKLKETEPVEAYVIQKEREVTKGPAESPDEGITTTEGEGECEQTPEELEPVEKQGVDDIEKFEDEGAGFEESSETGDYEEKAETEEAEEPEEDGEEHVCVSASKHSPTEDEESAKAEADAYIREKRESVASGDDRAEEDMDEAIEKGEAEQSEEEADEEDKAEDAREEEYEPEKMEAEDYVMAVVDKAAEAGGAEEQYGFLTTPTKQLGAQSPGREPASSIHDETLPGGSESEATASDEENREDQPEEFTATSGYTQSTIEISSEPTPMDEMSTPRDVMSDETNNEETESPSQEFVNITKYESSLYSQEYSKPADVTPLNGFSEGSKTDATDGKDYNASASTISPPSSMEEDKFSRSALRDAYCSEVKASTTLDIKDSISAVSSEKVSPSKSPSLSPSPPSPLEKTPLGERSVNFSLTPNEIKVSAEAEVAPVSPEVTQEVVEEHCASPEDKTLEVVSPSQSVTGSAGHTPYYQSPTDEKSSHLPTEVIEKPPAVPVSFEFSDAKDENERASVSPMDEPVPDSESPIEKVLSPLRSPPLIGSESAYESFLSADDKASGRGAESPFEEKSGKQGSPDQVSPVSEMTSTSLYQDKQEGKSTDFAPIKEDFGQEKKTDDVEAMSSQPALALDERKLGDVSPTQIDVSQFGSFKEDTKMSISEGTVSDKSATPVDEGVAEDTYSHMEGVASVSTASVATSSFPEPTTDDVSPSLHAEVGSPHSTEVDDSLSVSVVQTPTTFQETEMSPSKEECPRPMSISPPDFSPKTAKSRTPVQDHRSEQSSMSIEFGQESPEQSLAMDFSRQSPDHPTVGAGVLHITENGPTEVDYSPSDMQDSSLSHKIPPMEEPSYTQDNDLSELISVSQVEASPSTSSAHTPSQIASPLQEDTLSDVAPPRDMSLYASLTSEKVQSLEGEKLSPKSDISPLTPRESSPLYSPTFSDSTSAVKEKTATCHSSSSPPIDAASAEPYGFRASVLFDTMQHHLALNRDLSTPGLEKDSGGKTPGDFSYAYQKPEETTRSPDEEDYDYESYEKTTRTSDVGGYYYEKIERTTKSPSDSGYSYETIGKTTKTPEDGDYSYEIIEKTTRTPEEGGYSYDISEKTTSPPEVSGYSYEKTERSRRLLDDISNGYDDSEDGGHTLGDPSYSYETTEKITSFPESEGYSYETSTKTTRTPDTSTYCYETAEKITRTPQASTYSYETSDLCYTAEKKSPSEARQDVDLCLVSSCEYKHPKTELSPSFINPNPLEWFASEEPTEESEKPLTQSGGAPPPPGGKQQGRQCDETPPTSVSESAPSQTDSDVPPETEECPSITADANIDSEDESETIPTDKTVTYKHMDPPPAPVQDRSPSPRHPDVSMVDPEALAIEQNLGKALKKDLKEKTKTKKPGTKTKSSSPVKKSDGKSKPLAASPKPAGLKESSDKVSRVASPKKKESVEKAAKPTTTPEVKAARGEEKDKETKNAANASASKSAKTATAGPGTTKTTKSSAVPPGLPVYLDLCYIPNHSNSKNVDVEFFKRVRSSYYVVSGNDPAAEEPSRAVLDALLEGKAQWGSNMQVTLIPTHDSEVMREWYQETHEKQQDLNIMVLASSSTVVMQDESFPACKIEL
UniProt P04406: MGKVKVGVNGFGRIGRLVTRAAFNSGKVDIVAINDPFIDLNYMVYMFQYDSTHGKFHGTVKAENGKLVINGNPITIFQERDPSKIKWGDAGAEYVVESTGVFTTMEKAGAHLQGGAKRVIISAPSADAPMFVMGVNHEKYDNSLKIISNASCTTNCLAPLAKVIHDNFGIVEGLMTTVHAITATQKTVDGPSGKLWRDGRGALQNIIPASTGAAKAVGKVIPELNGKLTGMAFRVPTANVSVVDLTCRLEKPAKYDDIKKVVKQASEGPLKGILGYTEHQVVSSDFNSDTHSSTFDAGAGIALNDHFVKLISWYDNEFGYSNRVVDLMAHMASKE

T1: microsomal glutathione S transferase (human (endogenous in brain prefrontal cortex)) (UniProt P10620)
T1 sequence: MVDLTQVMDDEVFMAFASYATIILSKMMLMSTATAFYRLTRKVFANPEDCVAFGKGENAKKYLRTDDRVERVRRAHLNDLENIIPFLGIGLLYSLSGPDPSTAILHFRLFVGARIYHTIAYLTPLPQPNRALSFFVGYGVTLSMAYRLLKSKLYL

B1: immunoglobulin super family member 8 (protein, UniProt Q969P0 28-613)
chain: REVLVPEGPLYRVAGTAVSISCNVTGYEGPAQQNFEWFLYRPEAPDTALGIVSTKDTQFSYAVFKSRVVAGEVQVQRLQGDAVVLKIARLQAQDAGIYECHTPSTDTRYLGSYSGKVELRVLPDVLQVSAAPPGPRGRQAPTSPPRMTVHEGQELALGCLARTSTQKHTHLAVSFGRSVPEAPVGRSTLQEVVGIRSDLAVEAGAPYAERLAAGELRLGKEGTDRYRMVVGGAQAGDAGTYHCTAAEWIQDPDGSWAQIAEKRAVLAHVDVQTLSSQLAVTVGPGERRIGPGEPLELLCNVSGALPPAGRHAAYSVGWEMAPAGAPGPGRLVAQLDTEGVGSLGPGYEGRHIAMEKVASRTYRLRLEAARPGDAGTYRCLAKAYVRGSGTRLREAASARSRPLPVHVREEGVVLEAVAWLAGGTVYRGETASLLCNISVRGGPPGLRLAASWWVERPEDGELSSVPAQLVGGVGQDGVAELGVRPGGGPVSVELVGPRSHRLRLHSLGPEDEGVYHCAPSAWVQHADYSWYQAGSARSGPVTVYPYMHALDTLFVPLLVGTGVALVTGATVLGTITCCFMKRLRKR

Legend:
[1] = biological target: MAP1B (human (endogenous in brain prefrontal cortex)) (UniProt P46821); assay: native gel or EMSA; 2D BN/SDS-PAGE: complexes of human brain prefrontal cortex (AD and age-matched control) solubilised in dodecyl-maltoside, separated on 4-16% blue-native gel at 4 °C, resolved on 7.5-12.5% SDS-PAGE in the second dimension; spots identified by nano LC-MS/MS
[2] = biological target: T1, microsomal glutathione S transferase (human (endogenous in brain prefrontal cortex)); assay: as above

Molecule	binding [1]	binding [2]
Glyceraldehyde-3-PO4 dehydrogenase (from UniProt P04406 1-335)	binds	–
B1	–	binds
